## Primary screen of a compound library

Values are the deposited “Percent Effect”, in %. How 0% and 100% were set is not recorded. Most values in the screen are low, and negative values occur. This is an unselected part of the compounds tested. Two or more numbers in one place are separate tests of the same structure; such repeats can differ widely.

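Viability assay of Plasmodium falciparum sporozoites; the read-out is not stated. The concentration is filed as 10 mM, unlikely as a test dose, so the dose is not known. The record gives no direction; compounds that gave an IC50 in retests scored well above the rest, so higher reads as lower viability. Strong results were mostly tested again. Size under these conditions: about 34,000 compounds, about 280 of them at 50% or above in at least one test.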

SMILES: NC(=O)c1cn[nH]c1C1CCCN1C(=O)c1cnccn1 (stereo not shown)
percent effect: 16.56%

SMILES: O=C(c1cnc(-c2ccco2)s1)N1CCCCC1Cn1cccn1 (stereo not shown)
percent effect: -7.877%

SMILES: Cc1cc(C(=O)N2CCCC(C)C2)ccc1NCc1nc(C(C)C)no1 (stereo not shown)
percent effect: 54.84% and 44.37% and 61.2%

SMILES: Cc1nnc2n1CCN(CC(=O)N1CCc3ccccc3C1)C2
percent effect: 16.91%

SMILES: NC(=O)c1ccc(NC(=O)CCN2CCCC(N3CCCC3)C2)cc1 (stereo not shown)
percent effect: -16.01%

SMILES: O=C(O)C(F)(F)F.O=C(O)C(F)(F)F.c1cncc(N2CCOCC3(CCCN(Cc4cccs4)C3)C2)c1 (stereo not shown)
percent effect: 0%

SMILES: CC(C)N1CCc2[nH]nc(C(=O)N3CCN(C)CC3)c2C1.O=C(O)C(F)(F)F.O=C(O)C(F)(F)F.O=C(O)C(F)(F)F
percent effect: 0.1711%

SMILES: Cc1c(C)n2c(SCC(=O)N3CCC(C)CC3)nnc2[nH]c1=O
percent effect: 0.5023% and 0.5378%

SMILES: O=C(O)C(F)(F)F.[H][C@@]12CN(CC)C[C@]1([H])[C@@H](OC)CCN2S(=O)(=O)c1ccccc1F
percent effect: 1.961%

SMILES: Cc1nn(C)c(N2CCOCC2)c1CNC1CCc2ccccc21 (stereo not shown)
percent effect: 12.85%

SMILES: C[C@@H]1CN(Cc2cccc(F)c2)C[C@]12CCN(Cc1cccnc1)C2=O.O=C(O)C(F)(F)F.O=C(O)C(F)(F)F
percent effect: -0.722%

SMILES: N#CCCN(CC1CCCO1)C(=O)c1ccc(C#N)cc1 (stereo not shown)
percent effect: -7.932%

SMILES: O=C(O)C(F)(F)F.c1csc(CN2CCCn3nnc(COCC4CC4)c3C2)n1
percent effect: 6.51%

SMILES: CC1(NC(=O)CNC(=O)C(C)(C)C)CCc2ccccc2C1 (stereo not shown)
percent effect: 0.6055%

SMILES: COc1ccc(S(=O)(=O)N2C[C@H](OC)[C@]3(CCCO3)C2)cc1
percent effect: -0.6244%

SMILES: CN(Cc1ccccn1)C(=O)Nc1cc(C(F)(F)F)c[nH]c1=O
percent effect: -2.331%

SMILES: COc1ccccc1C(O)CNC(=O)Nc1ncccc1C (stereo not shown)
percent effect: 0.08224%

SMILES: Cl.O=C(c1ccoc1)N1CCC(NCc2ccccc2Cl)CC1
percent effect: -1.143%

SMILES: CCO[C@H]1CO[C@@]2(CCCN(Cc3nc(C)cs3)C2)C1.O=C(O)C(F)(F)F
percent effect: -5.332%

SMILES: CC(OCC1CC1)C(=O)N1CCCN(c2cccnn2)CC1 (stereo not shown)
percent effect: 4.994%

SMILES: CC(NC(=O)C(C)(C)C)c1cc(O)nc(-c2cccnc2)n1 (stereo not shown)
percent effect: 8.021%

SMILES: O=C(O)C(F)(F)F.[H][C@@]12CN(CC3CCOCC3)C[C@@]1([H])N(CC1CC1)C(=O)CO2
percent effect: -12.34%

SMILES: CCn1c2c(ccc1=O)CC(N)CC2 (stereo not shown)
percent effect: 15.06%

SMILES: COc1ncnc2c1CCN(CC1CCOC1)CC2 (stereo not shown)
percent effect: -6.163%

SMILES: COC(=O)NCC(=O)NCc1nn(-c2ccccc2)c2c1CCC2
percent effect: 16.59%

SMILES: Cn1cc(NC(=O)N2CCC(CN3CCCC3)CC2)ccc1=O
percent effect: 14.33%

SMILES: Cc1ccc(NC(=O)c2nc(N3CCCCC3)ncc2Cl)cc1I
percent effect: 0.355%

SMILES: COCc1nc(C2CCN(Cc3nccn3C)CC2)no1
percent effect: -0.2809%

SMILES: Cc1cc(C)n(C2CN(CC(=O)NC(C3CC3)C3CC3)C2)n1
percent effect: -0.6057%

SMILES: O=C1NC2(CCc3ccccc31)CCN(C(=O)c1ccncc1)C2 (stereo not shown)
percent effect: -2.784%

SMILES: Cc1nn(C)c(N2CCOCC2)c1CNCc1ccc(N(C)C)nc1
percent effect: 6.683% and 14.39% and 13.71%

SMILES: O=C(NCCCn1nc2ccccn2c1=O)Nc1ccc(F)cc1F
percent effect: -2.511%

SMILES: CC(C)Nc1nc(N2CCCC2)nc2c1CN(C)CC2
percent effect: 0.4087% and 5.059% and 2.782%

SMILES: Cc1noc(C)c1CN1CCOCC12CCN(c1ncccn1)CC2.O=C(O)C(F)(F)F
percent effect: -1.751%

SMILES: [H][C@]12CC[C@@]3(N=C(C)N(C)C3=O)[C@@]1([H])CN(Cc1ccccc1F)C2
percent effect: -5.596%

SMILES: CCc1nc(CN2CCCN(c3nccs3)CC2)no1
percent effect: 3.761%

SMILES: Cc1ccccc1N1CCN(C(=O)c2cnc(N(C)C)nc2C)C(C)C1 (stereo not shown)
percent effect: 4.741%

SMILES: O=C(O)C(F)(F)F.O=C(O)C(F)(F)F.[H][C@@]12COC[C@]1(CNC(=O)c1ccco1)CN(Cc1ccncc1)C2
percent effect: -10.27%

SMILES: CN(C)C(=O)c1cccnc1SCc1ccccc1C#N
percent effect: -20.18%

SMILES: Cn1ncnc1NCc1ccc(Cl)cc1
percent effect: -1.253%

SMILES: COc1c(CNC2CCc3cc(C)ccc32)c(C)nn1C (stereo not shown)
percent effect: 9.723%

Some entries from above, unchanged:

- CCn1c2c(ccc1=O)CC(N)CC2 (stereo not shown) | 15.06%
- O=C1NC2(CCc3ccccc31)CCN(C(=O)c1ccncc1)C2 (stereo not shown) | -2.784%
- CCO[C@H]1CO[C@@]2(CCCN(Cc3nc(C)cs3)C2)C1.O=C(O)C(F)(F)F | -5.332%
- CN(Cc1ccccn1)C(=O)Nc1cc(C(F)(F)F)c[nH]c1=O | -2.331%
- N#CCCN(CC1CCCO1)C(=O)c1ccc(C#N)cc1 (stereo not shown) | -7.932%

From ChEMBL document CHEMBL3988442, “University of Dundee, Small-Polar-MMV Screening Library” (2021).